Some of the results follow. The main result of the screen is listed elsewhere. These columns were measured beside it and carry no call. Compounds called inactive in the main read-out are mostly missing here. Words in brackets tell the shape of the fitted curve; partial curves, single points and poor fits give uncertain potencies.
Assay: qHTS Assay for Lipid Storage Modulators in Drosophila S3 Cells;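 on cell number change: cells counted by Cell Tracker Red CMTPX staining in the red channel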
Settings: BODIPY lipid droplet fluorescence, 18-24 h; for cell number change: measured here: cell count max response, cells fed with added oleic acid
Summary of the method: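 Drosophila S3 cells loaded with oleic acid (400 uM, as added) and compounds at several concentrations; lipid droplets imaged by 488-nm laser-scanning cytometry, 500–530 nm intensity and object ratio to cell channel. Percent activity normalized to 20 uM Triacsin C.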

[1] = measured here: lipid fluorescence (Fed channel) AC50, cells fed with added oleic acid
[2] = measured here: cell number channel AC50, cells fed with added oleic acid

For `Cc1cccc(NS(=O)(=O)c2ccc(C)c(C(=O)NCC(c3ccccc3)N(C)C)c2)c1` (configuration not stated), the cell number change was -5.08% and the AC50 [1] was 2.91 µM [rising, single point].

With `CC(COc1ccccc1)N(CCCl)Cc1ccccc1` (configuration not stated) the cell number change was -2.93% and the AC50 [1] was 0.651 µM [falling, single point].

With `CC(C)(C)c1cc(CCC(=O)NNC(=O)c2ccco2)cc(C(C)(C)C)c1O` the AC50 [2] was 0.291 µM [rising, full curve] and the AC50 [1] was 0.731 µM [rising, full curve].

For `O=S(=O)(c1ccccc1)N1CCN(Cc2ccc(Cl)cc2)CC1`, the cell number change was -20.5% and the AC50 [1] was 29.1 µM [falling, single point].

With `Cc1ccccc1C(=O)N1CCN(c2ccc(NC(=S)NC(=O)c3cccs3)cc2)CC1` the cell number change was -19.1% and the AC50 [2] was 0.103 µM [falling, partial curve, poor fit].

For `O=C(Nc1cc(S(=O)(=O)N2CCOCC2)ccc1N1CCOCC1)c1cnccn1`, the cell number change was -12.7% and the AC50 [2] was 0.82 µM [falling, full curve, poor fit].

With `Nc1ccc(N2CCN(C(=O)c3cccs3)CC2)cc1` the cell number change was 22.2% and the AC50 [1] was 6.51 µM [rising, single point].

With `COc1ccc(NC(=O)c2sc3nc(C)nc(N4CCN(c5ccccn5)CC4)c3c2C)cc1Cl` the cell number change was 57.6%, the AC50 [2] was 16.4 µM [rising, single point] and the AC50 [1] was 6.51 µM [falling, single point].

In the case of `Clc1ccccc1CSc1nnc(-c2ccccn2)n1Cc1ccco1`, the cell number change is reported as 59.8% and the AC50 [2] is reported as 29.1 µM [rising, single point].

In the case of `O=C(Cn1cnc2ccccc2c1=O)Nc1nc2ccccc2s1`, the cell number change is reported as -2.55% and the AC50 [1] is reported as 0.092 µM [falling, full curve, poor fit].

In the case of `Cc1cc(C(F)(F)F)n(-c2nc(C(=O)Nc3ccccc3Oc3ccccc3)cs2)n1`, the AC50 [1] is reported as 0.13 µM [rising, full curve, poor fit].

In the case of `CN(Cc1nccn1C)C(=O)c1cc(COc2ccc3ncccc3c2)on1`, the cell number change is reported as -23.2% and the AC50 [1] is reported as 23.1 µM [falling, single point].

`Cc1nnc(NC(=O)c2ccc3nccnc3c2)s1` gave a cell number change of 11.5%.

For `O=C(c1cccs1)N1CCC(N2CCN(c3ccccc3)CC2)CC1`, the cell number change was -21.8% and the AC50 [1] was 11.6 µM [rising, single point].

`CCCc1cc(C(=O)Nc2ccn(Cc3ccc(C)cc3)n2)no1` gave a cell number change of 17.5%.

In the case of `Cc1cccc(C)c1NC(=O)CSc1nnc(-c2cnccn2)n1C`, the cell number change is reported as -11.6% and the AC50 [1] is reported as 29.1 µM [rising, single point].

In the case of `Cn1c2c(c(O)c(-c3ccccc3)c1=O)C(=O)CC(C)(C)C2`, the cell number change is reported as 50% and the AC50 [2] is reported as 29.1 µM [rising, single point].

For `Cc1ccc(N2CCN(Cc3ccccc3)CC2=O)c(C)c1`, the cell number change was -3.94% and the AC50 [1] was 0.0291 µM [rising, full curve].

In the case of `C=CCN(CC=C)C(=O)c1cccc(OC2CCN(S(=O)(=O)N(C)C)CC2)c1`, the cell number change is reported as -29.4% and the AC50 [1] is reported as 29.1 µM [falling, single point].

For `CNc1ccc(C(=O)OCC(=O)Nc2ccnn2C(C)C)cc1[N+](=O)[O-]`, the cell number change was -1.1% and the AC50 [1] was 1.03 µM [rising, partial curve, poor fit].

`Cc1cccc(N2C(=O)Cc3ccccc3C2=O)c1` showed a cell number change of 5.56%.

In the case of `CC(=O)NC(c1cccs1)c1cc([N+](=O)[O-])c2cccnc2c1O` (configuration not stated), the cell number change is reported as 3.12% and the AC50 [1] is reported as 29.1 µM [rising, single point].

In the case of `CCOC(=O)N1CCN(C(=O)N2CCOCC2)CC1`, the cell number change is reported as -24.8% and the AC50 [1] is reported as 6.51 µM [falling, partial curve, poor fit].

Work on `O=C(Nc1ccc(S(=O)(=O)N2CCOCC2)cc1)c1ccc(CN2CCc3ccccc3C2)cc1` yielded a cell number change of -19.2%.

In the case of `CC1(NC(=O)CCNC(=O)c2ccc(C(C)(C)C)cc2)CCS(=O)(=O)C1` (configuration not stated), the cell number change is reported as 2.26% and the AC50 [1] is reported as 0.103 µM [falling, partial curve, poor fit].

In the case of `CN1C(=S)SC(N(O)C(=O)Nc2ccccc2)C1(C)C` (configuration not stated), the cell number change is reported as 19.5% and the AC50 [1] is reported as 0.0731 µM [falling, partial curve, poor fit].

With `Cc1ccc(C)c(NC(=O)CN(C)C(=O)c2cc3ccccc3o2)c1` the cell number change was 3.85% and the AC50 [1] was 11.6 µM [rising, partial curve].

`O=S(=O)(Cc1ccccc1)Nc1ccc(F)cc1` showed a cell number change of 12.3%.

For `CCc1cccc(NC(=O)Cn2c3[n+](c4ccc(C(F)(F)F)cc42)CCCCC3)c1`, the cell number change was 21% and the AC50 [1] was 32.6 µM [rising, single point].

`Cc1cccc2c1N1C(=O)c3c(C(=O)O)cccc3C1CC2C` (configuration not stated) showed a cell number change of 1.04%.

Molecule `C/C(=N\Nc1ccccn1)c1cccs1` has a cell number change of 37.8%.

For `O=C(NNC(=O)c1ccc2c(c1)OCO2)NC1CCCCC1`, the cell number change was 6.98%, the AC50 [2] was 1.84 µM [rising, single point] and the AC50 [1] was 3.26 µM [rising, single point].

Molecule `COc1ccc(NC(=O)/C(=C\c2ccc(F)cc2)NC(=O)c2ccco2)cc1` has a cell number change of -23%.

In the case of `CC(C)C[C@H](NC(=O)NCc1ccc(Cl)cc1)C(=O)O`, the AC50 [1] is reported as 7.31 µM [falling, partial curve].

In the case of `CCOC(=O)c1c(CN2CCOCC2)n(-c2ccccc2)c2ccc(O)cc12`, the cell number change is reported as 13.8% and the AC50 [1] is reported as 18.4 µM [rising, partial curve].

With `O=C(N/N=C/c1ccc(OC(F)F)cc1OC(F)F)c1ccc(Br)cc1` the cell number change was -1.58% and the AC50 [1] was 1.84 µM [rising, full curve].

`COc1ccccc1-c1cc(C(F)(F)F)nc(N2CCCCC2)n1` showed a cell number change of 28.4%.

`COc1cc(C(C)=O)ccc1OCC(O)CN1CCN(S(=O)(=O)c2ccccc2)CC1` (configuration not stated) showed a cell number change of 7.1%.

For `Cc1ccc(-n2c(=O)[nH]cc(C(=O)Nc3ccc4c(c3)OCO4)c2=O)cc1C`, the AC50 [2] was 1.84 µM [rising, partial curve].

In the case of `C/C(CC(O)c1ccc2ccccc2n1)=N/O` (configuration not stated), the AC50 [1] is reported as 7.31 µM [falling, partial curve].

With `CC1=NC(C(F)(F)F)(C(F)(F)F)C2=C(CC(C)(C)CC2=O)N1Cc1ccco1` the cell number change was -9.18%, the AC50 [2] was 0.58 µM [falling, full curve, poor fit] and the AC50 [1] was 3.26 µM [falling, single point].

`NC(=O)c1ccc(NC(=O)CSc2nc3ccccc3c(=O)n2CCCN2CCOCC2)cc1` showed a cell number change of -15.1%.
